Measurements reported in patent US9133220B2, “Boron-containing 5-arylidene-3,5-dihydro-4H-imidazol-4-ones” (Evrogen Joint Stock Company, priority 2012, dated 2015).

Tested on: cell membranes of HeLa Kyoto and HEK293 cell lines
Assay: Staining of cell membranes and comparison of photostability with EGFP
Assay type: cell-based, human
Details: 5 μM; cells expressing EGFP-XRCC
Protocol: Human cell cultures HeLa and HEK293 were grown in standart conditions and analyzed by wide field fluorescent and confocal laser scanning microscopy (excitation at 488 nm, detection at 500-540 nm).
The cell staining of the cells, temporarily expressing chimer protein EGFP-XRCC (nuclear localization), was carried out by p-diethylamino-BDI-BF2 in concentration 5 μM to compare fluorescent properties of the compound p-diethylamino-BDI-BF2 to the green fluorescent protein EGFP.

CCN(CC)c1ccc(/C=C2\N=C(C)N(C)C2=O)c(B(F)F)c1 [p-diethylamino-BDI-BF2, (Z)-4-(4-(diethylamino)-2-(difluoroboryl)benzylidene)-1,2-dimethyl-1H-imidazole-5(4H)-one]
decrease of fluorescence intensity during the half-life time of EGFP under outer radiation: 5-10%
